Measured values reported in paper PMC12071194.
No constants are given. Whether binding was seen depends on the method and setting. Binding seen in cells or lysates may run through a third protein.

Sequences of proteins named here, by UniProt entry; tags and fusion partners are left off.
UniProt O60238: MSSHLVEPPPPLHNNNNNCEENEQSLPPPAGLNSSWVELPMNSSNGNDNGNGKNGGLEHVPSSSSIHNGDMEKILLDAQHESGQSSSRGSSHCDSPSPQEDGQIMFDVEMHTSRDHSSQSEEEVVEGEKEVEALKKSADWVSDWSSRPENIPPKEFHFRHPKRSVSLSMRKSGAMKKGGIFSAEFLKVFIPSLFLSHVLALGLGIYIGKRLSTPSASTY
UniProt Q6ZNE5: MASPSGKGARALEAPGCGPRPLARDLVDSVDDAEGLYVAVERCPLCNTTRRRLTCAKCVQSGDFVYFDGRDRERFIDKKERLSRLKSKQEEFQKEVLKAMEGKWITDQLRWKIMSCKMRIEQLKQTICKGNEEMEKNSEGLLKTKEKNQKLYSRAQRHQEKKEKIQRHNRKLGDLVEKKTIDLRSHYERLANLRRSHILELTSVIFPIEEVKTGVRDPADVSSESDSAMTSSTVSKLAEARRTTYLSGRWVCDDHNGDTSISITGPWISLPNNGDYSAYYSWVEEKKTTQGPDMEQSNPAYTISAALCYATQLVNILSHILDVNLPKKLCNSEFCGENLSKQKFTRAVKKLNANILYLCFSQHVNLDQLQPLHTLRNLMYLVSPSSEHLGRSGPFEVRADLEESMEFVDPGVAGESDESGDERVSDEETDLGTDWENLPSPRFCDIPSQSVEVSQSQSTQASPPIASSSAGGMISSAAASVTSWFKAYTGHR

Molecular target: mCherry-NIX (WT) (UniProt O60238)
Assay: co-IP; RFP-trap magnetic agarose on lysates (0.5% triton X-100 buffer) of B/N DKO HeLa cells expressing mCherry-BNIP3 or mCherry-NIX; cells cultured with 1 mM DFP for 12 h, then 12 h more with 100 nM bafilomycin A1 and DFP; immunoblot

Atg14 (from UniProt Q6ZNE5 1-492)
binding: no binding
